Source: publication PMC6760448, “The DRS–AIMP2–EPRS subcomplex acts as a pivot in the multi-tRNA synthetase complex” (IUCrJ, 2019)
No constants are given. Whether binding was seen depends on the method and setting. Binding calls can cover weak binding; strength is not graded here.

Sequences of proteins named here, by UniProt entry; tags and fusion partners are left off. A change or cut given only in a name is not applied to a line headed by its entry.
UniProt P56192: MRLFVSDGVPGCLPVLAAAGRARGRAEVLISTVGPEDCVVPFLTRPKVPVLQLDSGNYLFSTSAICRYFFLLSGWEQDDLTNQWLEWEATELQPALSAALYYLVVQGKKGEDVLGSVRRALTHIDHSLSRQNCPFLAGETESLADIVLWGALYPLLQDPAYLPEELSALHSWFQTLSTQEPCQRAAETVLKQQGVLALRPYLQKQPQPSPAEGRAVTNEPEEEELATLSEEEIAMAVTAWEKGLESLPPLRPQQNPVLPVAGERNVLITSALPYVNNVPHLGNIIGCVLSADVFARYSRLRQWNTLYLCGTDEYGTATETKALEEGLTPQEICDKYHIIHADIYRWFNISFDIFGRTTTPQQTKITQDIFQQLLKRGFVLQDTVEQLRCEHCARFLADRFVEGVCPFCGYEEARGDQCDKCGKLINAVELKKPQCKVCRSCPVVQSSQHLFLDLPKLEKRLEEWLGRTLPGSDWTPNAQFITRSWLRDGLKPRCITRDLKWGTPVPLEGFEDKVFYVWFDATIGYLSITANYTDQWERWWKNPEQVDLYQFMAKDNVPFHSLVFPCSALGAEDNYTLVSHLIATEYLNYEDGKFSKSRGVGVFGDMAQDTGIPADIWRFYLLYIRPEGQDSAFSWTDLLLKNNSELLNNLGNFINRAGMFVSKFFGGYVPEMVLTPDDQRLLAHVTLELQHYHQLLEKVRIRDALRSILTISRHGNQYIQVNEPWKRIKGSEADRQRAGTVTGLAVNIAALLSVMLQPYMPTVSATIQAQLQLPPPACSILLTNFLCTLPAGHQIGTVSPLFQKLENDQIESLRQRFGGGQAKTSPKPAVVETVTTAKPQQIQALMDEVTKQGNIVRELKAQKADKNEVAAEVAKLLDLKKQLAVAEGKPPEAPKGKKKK

Target: T1, aminoacyl-tRNA synthetase complex-interacting multifunctional protein 3 (UniProt O43324)
T1 sequence: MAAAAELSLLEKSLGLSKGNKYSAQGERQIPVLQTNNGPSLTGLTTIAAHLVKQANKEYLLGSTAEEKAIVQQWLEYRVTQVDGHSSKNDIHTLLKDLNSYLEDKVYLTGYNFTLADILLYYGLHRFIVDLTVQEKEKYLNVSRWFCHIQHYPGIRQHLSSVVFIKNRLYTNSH
Assay: SEC; separately transformed strains pooled in one culture, proteins met on cell disruption by sonication; His6 affinity (HiTrap Chelating HP), then HiLoad 16/600 Superdex 200 pg in 50 mM HEPES–NaOH pH 8.0, 200 mM NaCl, 5 mM DTT, 1% glycerol; SDS–PAGE of the highest peak

- binding: binds
Substance: GST domain of methionyl-tRNA synthetase (from UniProt P56192) (domain or fragment)
